Taken from: PubChem BioAssay AID1224830 (NIAID, 2016)

Screen: 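Genes whose knock-down alters the TNF-alpha reporter response to LPS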 (primary screen)
System: human THP-1 monocytic leukaemia cells, TNF dual-luciferase reporter clone, PMA-differentiated to macrophage-like cells
Reagent: siRNA pool against human genes, 50 nM
Time to read-out: LPS for 4 h, given about 3 days after siRNA transfection
Conditions: bacterial LPS (TLR4 ligand), 10 ng/ml
Measurement: 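Ratio of firefly to renilla light, scaled to the plate median and expressed as a robust z-score per replicate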
Direction: TNF reporter robust z-score: higher = stronger TNF reporter response to LPS
Call rule: 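Each well counts as active if its z-score is over 2.8 or under -1.5; controls are left without a call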
In all, the deposit lists about 18,000 reagents; this is a part drawn at random. Over the whole deposit, about 2,900 (16%) were called active. 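Calls are made per well; low scores hint the gene aids the LPS response, high scores that it dampens it.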 Entries without a mark were called inactive. Repeated entries: four replicate wells of each siRNA pool.

no.	Target gene	TNF reporter robust z-score
1	RBBP7 (RB binding protein 7, chromatin remodeling factor)	0.42
2	RBBP7 (RB binding protein 7, chromatin remodeling factor)	1.66
3	RBBP7 (RB binding protein 7, chromatin remodeling factor)	0.57
4	RBBP7 (RB binding protein 7, chromatin remodeling factor)	0.71
5	ERBIN (erbb2 interacting protein)	-0.07
6	ERBIN (erbb2 interacting protein)	-0.18
7	ERBIN (erbb2 interacting protein)	-0.25
8	ERBIN (erbb2 interacting protein)	0.48
9	MSTN (myostatin)	-0.58
10	MSTN (myostatin)	-0.28
11	MSTN (myostatin)	-0.72
12	MSTN (myostatin)	-0.13
13	KRR1 (KRR1 small subunit processome component)	-0.39
14	KRR1 (KRR1 small subunit processome component)	0.09
15	KRR1 (KRR1 small subunit processome component)	-0.69
16	KRR1 (KRR1 small subunit processome component)	-0.01
17	ETFA (electron transfer flavoprotein subunit alpha)	0.62
18	ETFA (electron transfer flavoprotein subunit alpha)	0.72
19	ETFA (electron transfer flavoprotein subunit alpha)	0.65
20	CENPB (centromere protein B)	-0.02
21	CENPB (centromere protein B)	0.36
22	CENPB (centromere protein B)	-0.33
23	CENPB (centromere protein B)	0.07
24	DIAPH1 (diaphanous related formin 1)	-0.64
25	DIAPH1 (diaphanous related formin 1)	-0.62
26	DIAPH1 (diaphanous related formin 1)	-0.4
27	DIAPH1 (diaphanous related formin 1)	-0.77
28	ACTR10 (actin related protein 10)	-0.42
29	ACTR10 (actin related protein 10)	-0.34
30	ACTR10 (actin related protein 10)	-0.56
31	ACTR10 (actin related protein 10)	0.32
32	OR2A42 (olfactory receptor family 2 subfamily A member 42)	-0.06
33	OR2A42 (olfactory receptor family 2 subfamily A member 42)	0.35
34	OR2A42 (olfactory receptor family 2 subfamily A member 42)	-0.48
35	OR2A42 (olfactory receptor family 2 subfamily A member 42)	-0.64
36	CD59 (CD59 molecule (CD59 blood group))	1.41
37	CD59 (CD59 molecule (CD59 blood group))	-0.08
38	CD59 (CD59 molecule (CD59 blood group))	0.27
39	CD59 (CD59 molecule (CD59 blood group))	1.01
40	MS4A2 (membrane spanning 4-domains A2)	-0.46
41	MS4A2 (membrane spanning 4-domains A2)	0.51
42	MS4A2 (membrane spanning 4-domains A2)	1.77
43	MS4A2 (membrane spanning 4-domains A2)	0.74
44	ACAN (aggrecan)	-0.61
45	ACAN (aggrecan)	0.27
46	ACAN (aggrecan)	0.16
47	ACAN (aggrecan)	0.03
48	SEC24B (SEC24 homolog B, COPII component)	2.6
49	SEC24B (SEC24 homolog B, COPII component)	1.06
50	SEC24B (SEC24 homolog B, COPII component)	0.13
51	SEC24B (SEC24 homolog B, COPII component)	1.3
52	GSTT2B (glutathione S-transferase theta 2B)	0.3
53	GSTT2B (glutathione S-transferase theta 2B)	-0.07
54	GSTT2B (glutathione S-transferase theta 2B)	-0.11
55	GSTT2B (glutathione S-transferase theta 2B)	0.29
56	ASB10 (ankyrin repeat and SOCS box containing 10)	2.39
57	ASB10 (ankyrin repeat and SOCS box containing 10)	-0.92
58	ASB10 (ankyrin repeat and SOCS box containing 10)	-0.76
59	ASB10 (ankyrin repeat and SOCS box containing 10)	-0.97
60	KCNK5 (potassium two pore domain channel subfamily K member 5)	0.11
61	KCNK5 (potassium two pore domain channel subfamily K member 5)	1.33
62	KCNK5 (potassium two pore domain channel subfamily K member 5)	1.11
63	KCNK5 (potassium two pore domain channel subfamily K member 5)	0.38
64	C1orf94 (chromosome 1 open reading frame 94)	-1.08
65	C1orf94 (chromosome 1 open reading frame 94)	-0.28
66	C1orf94 (chromosome 1 open reading frame 94)	-0.8
67	C1orf94 (chromosome 1 open reading frame 94)	-0.67
68	ERBB4 (erb-b2 receptor tyrosine kinase 4)	0.41
69	ERBB4 (erb-b2 receptor tyrosine kinase 4)	-1.21
70	ERBB4 (erb-b2 receptor tyrosine kinase 4)	0.38
71	ERBB4 (erb-b2 receptor tyrosine kinase 4)	-0.81
72	TWF1 (twinfilin actin binding protein 1)	-0.16
73	TWF1 (twinfilin actin binding protein 1)	0.7
74	TWF1 (twinfilin actin binding protein 1)	0.38
75	TWF1 (twinfilin actin binding protein 1)	0.78
76	WDR59 (WD repeat domain 59)	-0.27
77	WDR59 (WD repeat domain 59)	-0.61
78	WDR59 (WD repeat domain 59)	0.34
79	WDR59 (WD repeat domain 59)	-0.68
80	ATG5 (autophagy related 5)	-1.05
81	ATG5 (autophagy related 5)	0.31
82	ATG5 (autophagy related 5)	0.11
83	ATG5 (autophagy related 5)	1.06
84	ANXA2R (annexin A2 receptor)	0.49
85	ANXA2R (annexin A2 receptor)	0.56
86	ANXA2R (annexin A2 receptor)	0.14
87	ANXA2R (annexin A2 receptor)	1.07
88	CD63 (CD63 molecule)	2.66
89	CD63 (CD63 molecule)	2.4
90	CD63 (CD63 molecule)	0.32
91	CD63 (CD63 molecule)	0.72
92	TTC23L (tetratricopeptide repeat domain 23 like)	-0.77
93	TTC23L (tetratricopeptide repeat domain 23 like)	-1.24
94	TTC23L (tetratricopeptide repeat domain 23 like)	-0.25
95	TTC23L (tetratricopeptide repeat domain 23 like)	-0.53
96	UBLCP1 (ubiquitin like domain containing CTD phosphatase 1)	-0.68
97	UBLCP1 (ubiquitin like domain containing CTD phosphatase 1)	1.2
98	UBLCP1 (ubiquitin like domain containing CTD phosphatase 1)	0.25
99	UBLCP1 (ubiquitin like domain containing CTD phosphatase 1)	0.81
100	DMAP1 (DNA methyltransferase 1 associated protein 1)	-0.23
101	DMAP1 (DNA methyltransferase 1 associated protein 1)	0.66
102	DMAP1 (DNA methyltransferase 1 associated protein 1)	0.27
103	DMAP1 (DNA methyltransferase 1 associated protein 1)	1.36
104	IGLL3P (immunoglobulin lambda like polypeptide 3, pseudogene)	-0.27
105	IGLL3P (immunoglobulin lambda like polypeptide 3, pseudogene)	0.53
106	IGLL3P (immunoglobulin lambda like polypeptide 3, pseudogene)	-0.71
107	IGLL3P (immunoglobulin lambda like polypeptide 3, pseudogene)	0.51
108	IRX1 (iroquois homeobox 1)	2.48
109	IRX1 (iroquois homeobox 1)	2.89 (active)
110	IRX1 (iroquois homeobox 1)	0.84
111	IRX1 (iroquois homeobox 1)	-0.11
112	FFAR2 (free fatty acid receptor 2)	-0.12
113	FFAR2 (free fatty acid receptor 2)	0.2
114	FFAR2 (free fatty acid receptor 2)	0.11
115	FFAR2 (free fatty acid receptor 2)	0.98
116	USE1 (unconventional SNARE in the ER 1)	0.58
117	USE1 (unconventional SNARE in the ER 1)	0.59
118	USE1 (unconventional SNARE in the ER 1)	1
119	USE1 (unconventional SNARE in the ER 1)	1.36
120	AFG3L2 (AFG3 like matrix AAA peptidase subunit 2)	0.17
121	AFG3L2 (AFG3 like matrix AAA peptidase subunit 2)	1.09
122	AFG3L2 (AFG3 like matrix AAA peptidase subunit 2)	0.59
123	AFG3L2 (AFG3 like matrix AAA peptidase subunit 2)	-0.79
124	FLVCR2 (FLVCR choline and putative heme transporter 2)	0.58
125	FLVCR2 (FLVCR choline and putative heme transporter 2)	-0.49
126	FLVCR2 (FLVCR choline and putative heme transporter 2)	-0.52
127	FLVCR2 (FLVCR choline and putative heme transporter 2)	0.76
128	OR10A3 (olfactory receptor family 10 subfamily A member 3)	0.72
129	OR10A3 (olfactory receptor family 10 subfamily A member 3)	0.55
130	OR10A3 (olfactory receptor family 10 subfamily A member 3)	0.53
131	OR10A3 (olfactory receptor family 10 subfamily A member 3)	1.58
132	HDIP1 (HDAC and MIER1 interacting protein 1)	-0.4
133	HDIP1 (HDAC and MIER1 interacting protein 1)	-0.05
134	HDIP1 (HDAC and MIER1 interacting protein 1)	-0.02
135	HDIP1 (HDAC and MIER1 interacting protein 1)	-0.11
136	SCAND3 (SCAN domain containing 3)	1.16
137	SCAND3 (SCAN domain containing 3)	1.07
138	SCAND3 (SCAN domain containing 3)	0.72
139	SCAND3 (SCAN domain containing 3)	2.87 (active)
140	CHRM3 (cholinergic receptor muscarinic 3)	-0.74
141	CHRM3 (cholinergic receptor muscarinic 3)	0.51
142	CHRM3 (cholinergic receptor muscarinic 3)	-0.16
143	CHRM3 (cholinergic receptor muscarinic 3)	0.28

14 entries already listed, sorted by “TNF reporter robust z-score”, low to high:
Target gene	TNF reporter robust z-score
AFG3L2 (AFG3 like matrix AAA peptidase subunit 2)	-0.79
FLVCR2 (FLVCR choline and putative heme transporter 2)	-0.52
FLVCR2 (FLVCR choline and putative heme transporter 2)	-0.49
HDIP1 (HDAC and MIER1 interacting protein 1)	-0.4
HDIP1 (HDAC and MIER1 interacting protein 1)	-0.05
HDIP1 (HDAC and MIER1 interacting protein 1)	-0.02
OR10A3 (olfactory receptor family 10 subfamily A member 3)	0.53
OR10A3 (olfactory receptor family 10 subfamily A member 3)	0.55
FLVCR2 (FLVCR choline and putative heme transporter 2)	0.58
AFG3L2 (AFG3 like matrix AAA peptidase subunit 2)	0.59
OR10A3 (olfactory receptor family 10 subfamily A member 3)	0.72
FLVCR2 (FLVCR choline and putative heme transporter 2)	0.76
AFG3L2 (AFG3 like matrix AAA peptidase subunit 2)	1.09
OR10A3 (olfactory receptor family 10 subfamily A member 3)	1.58
